PubChem BioAssay AID1259308 | NCATS | 2017
Shown is a random part of about 59,000 deposited reagents. About 1,510 of them (2.6%) count as active. 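Calls use total luciferase alone and ignore viability, so some active siRNAs may act by altering cell number.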 Entries without a mark were called inactive. The numbers tell different reagents against one gene apart. Further read-outs or replicates are left out here. No sequences are given here.

- Test: 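Candidate targets for better recombinant protein yield in mammalian cells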 (primary screen)
- System: human HEK293 embryonic kidney cells stably expressing firefly luciferase (HEK-CMV-Luc2-Hygro)
- Reagent: single siRNA against human genes, 0.8 pmol siRNA per well
- Time to read-out: 72 h
- Measurement: 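Luciferase light (ONE-Glo) measured on one replicate plate set and viability (CellTiter-Glo) on the other, scaled to a negative control siRNA, with robust z-scores and luciferase per cell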
- Reading the numbers: total luciferase, z-score and total luciferase, % of control: higher = more reporter protein produced; luciferase per cell, z-score: higher = more reporter output per viable cell
- Call rule: 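Active when the median/MAD z-score for overall luciferase is greater than 3; a gene was taken forward for validation with new siRNAs if at least two of its three siRNAs passed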
- Calls: active = raised luciferase; inactive = no rise

no.	Target gene	siRNA no.	total luciferase, z-score	total luciferase, % of control	luciferase per cell, z-score
1	TAS2R9 (taste 2 receptor member 9)	1	1.2	106	0.531
2	TAS2R9 (taste 2 receptor member 9)	2	0.0297	82.5	-0.138
3	TAS2R9 (taste 2 receptor member 9)	3	-0.767	66.6	-0.904
4	BRD2 (bromodomain containing 2)	1	-2.17	38.7	-2.88
5	BRD2 (bromodomain containing 2)	2	-0.908	63.8	-0.478
6	BRD2 (bromodomain containing 2)	3	-1.43	53.4	-1.23
7	RBM17 (RNA binding motif protein 17)	1	1.14	105	1.86
8	RBM17 (RNA binding motif protein 17)	2	0.0559	83	1.13
9	RBM17 (RNA binding motif protein 17)	3	-0.225	77.4	-0.384
10	TRPA1	1	-0.0388	81.1	-0.361
11	TRPA1	2	-0.623	69.5	-0.167
12	TRPA1	3	-0.23	77.3	-0.526
13	NAT8 (N-acetyltransferase 8 (putative))	1	-2.13	39.4	-1.17
14	NAT8 (N-acetyltransferase 8 (putative))	2	1.05	103	1.48
15	NAT8 (N-acetyltransferase 8 (putative))	3	2.33	128	1.63
16	C3AR1 (complement C3a receptor 1)	1	-0.208	77.8	0.0714
17	C3AR1 (complement C3a receptor 1)	2	-0.47	72.5	-0.0976
18	C3AR1 (complement C3a receptor 1)	3	-0.933	63.3	-1.09
19	NUP107 (nucleoporin 107)	1	0.117	84.2	0.611
20	NUP107 (nucleoporin 107)	2	0.616	94.1	0.961
21	NUP107 (nucleoporin 107)	3	0.018	82.2	0.475
22	CHUK	1	0.292	87.7	-0.473
23	CHUK	2	0.242	86.7	-0.311
24	CHUK	3	-1.75	47.1	-1.78
25	THUMPD2 (THUMP domain 2 tRNA and snRNA guanosine methyltransferase)	1	-0.231	77.3	0.836
26	THUMPD2 (THUMP domain 2 tRNA and snRNA guanosine methyltransferase)	2	-0.432	73.3	-0.489
27	THUMPD2 (THUMP domain 2 tRNA and snRNA guanosine methyltransferase)	3	-0.693	68.1	-0.716
28	PJA1 (praja ring finger ubiquitin ligase 1)	1	-0.242	77.1	0.0598
29	PJA1 (praja ring finger ubiquitin ligase 1)	2	0.95	101	2.14
30	PJA1 (praja ring finger ubiquitin ligase 1)	3	-0.606	69.8	-0.867

Continued (7 carried over from the part before).
no.	Target gene	siRNA no.	total luciferase, z-score	total luciferase, % of control	luciferase per cell, z-score
24	CHUK	3	-1.75	47.1	-1.78
25	THUMPD2 (THUMP domain 2 tRNA and snRNA guanosine methyltransferase)	1	-0.231	77.3	0.836
26	THUMPD2 (THUMP domain 2 tRNA and snRNA guanosine methyltransferase)	2	-0.432	73.3	-0.489
27	THUMPD2 (THUMP domain 2 tRNA and snRNA guanosine methyltransferase)	3	-0.693	68.1	-0.716
28	PJA1 (praja ring finger ubiquitin ligase 1)	1	-0.242	77.1	0.0598
29	PJA1 (praja ring finger ubiquitin ligase 1)	2	0.95	101	2.14
30	PJA1 (praja ring finger ubiquitin ligase 1)	3	-0.606	69.8	-0.867
31	CA6 (carbonic anhydrase 6)	1	-0.811	65.8	-0.658
32	CA6 (carbonic anhydrase 6)	2	0.978	101	0.112
33	CA6 (carbonic anhydrase 6)	3	0.37	89.2	0.458
34	ZNF552 (zinc finger protein 552)	1	-0.0312	81.3	0.687
35	ZNF552 (zinc finger protein 552)	2	1.55	113	0.983
36	ZNF552 (zinc finger protein 552)	3	-0.126	79.4	1.15
37	MYLK (myosin light chain kinase)	1	-0.423	73.5	0.228
38	MYLK (myosin light chain kinase)	2	-0.991	62.2	-0.863
39	MYLK (myosin light chain kinase)	3	-0.3	75.9	-0.939
40	SGCE (sarcoglycan epsilon)	1	0.845	98.7	0.791
41	SGCE (sarcoglycan epsilon)	2	-0.828	65.4	0.513
42	SGCE (sarcoglycan epsilon)	3	-0.942	63.2	-1.03
43	UCN3 (urocortin 3)	1	-0.341	75.1	0.368
44	UCN3 (urocortin 3)	2	-0.0397	81.1	-0.566
45	UCN3 (urocortin 3)	3	-1.66	48.9	-0.00206
46	CHCHD4 (coiled-coil-helix-coiled-coil-helix domain containing 4)	1	1.77	117	1.84
47	CHCHD4 (coiled-coil-helix-coiled-coil-helix domain containing 4)	2	-1.28	56.4	-2
48	CHCHD4 (coiled-coil-helix-coiled-coil-helix domain containing 4)	3	-0.345	75	-0.667
49	CETN3 (centrin 3)	1	-0.482	72.3	-0.0766
50	CETN3 (centrin 3)	2	-0.89	64.2	-1.38
51	CETN3 (centrin 3)	3	-1.15	59	2.67
52	CREBBP (CREB binding lysine acetyltransferase)	1	-1.03	61.4	-2.03
53	CREBBP (CREB binding lysine acetyltransferase)	2	-0.318	75.6	-0.508
54	CREBBP (CREB binding lysine acetyltransferase)	3	-0.223	77.4	-0.622
55	ZNF277 (zinc finger protein 277)	1	0.841	98.6	0.7
56	ZNF277 (zinc finger protein 277)	2	-1.38	54.5	-0.855
57	ZNF277 (zinc finger protein 277)	3	-1.31	55.8	-1.3
